Laboratory results taken from publication doi:10.1101/212233 (bioRxiv, 2017).
No constants are given. Whether binding was seen depends on the method and setting. Some results given as binding are weak or reduced against the parent protein; the word gives no strength. Sequences can lack the tags named with a protein.

T1: DARP14 subunit B (unfused cage subunit B)
T1 sequence: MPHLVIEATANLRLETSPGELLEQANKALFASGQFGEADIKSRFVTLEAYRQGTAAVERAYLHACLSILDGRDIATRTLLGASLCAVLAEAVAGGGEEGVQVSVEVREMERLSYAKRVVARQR

T2: DARP10 subunit B (unfused cage subunit)
T2 sequence: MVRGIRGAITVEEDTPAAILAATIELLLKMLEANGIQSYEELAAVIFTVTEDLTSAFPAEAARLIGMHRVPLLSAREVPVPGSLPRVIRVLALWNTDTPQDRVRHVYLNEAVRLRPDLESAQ


Assays:
[1] = biological target: T1, DARP14 subunit B (unfused cage subunit B); experiment: negative-stain electron microscopy
[2] = biological target: T1, DARP14 subunit B (unfused cage subunit B); experiment: SEC
[3] = biological target: T1, DARP14 subunit B (unfused cage subunit B); experiment: cryo-EM structure
[4] = biological target: T2, DARP10 subunit B (unfused cage subunit); experiment: negative-stain electron microscopy

Row | binding [1] | binding [2] | binding [3] | binding [4] | Binder
1 | binds |  |  |  | DARP16 subunit A (cage subunit A fused to the DARPin) (protein) MRITTKVGDKGSTRLFGGEEVWKDSPIIEANGTLDELTSFIGEAKHYVDEEMKGILEEIQNDIYKIMGEIGSKGKIEGISEERIAWLLKLILRYMEMVNLKSFVLPGGTLESAKLDVCRTIARRALRKVLTVTREFGIGAEAAAYLLALSDLLFLLARVIEIEDLGKKLLEAARAGQDDEVRILMANGADVNAHDDQGSTPLHLAAWIGHPEIVEVLLKHGADVNARDTDGWTPLHLAADNGHLEIVEVLLKYGADVNAQDAYGLTPLHLAADRGHLEIVEVLLKHGADVNAQDKFGKTAFDISIDNGNEDLAEILQKLN
2 | binds | binds | binds |  | DARP14 subunit A (cage subunit A fused to the DARPin by a continuous alpha helix) (other) MRITTKVGDKGSTRLFGGEEVWKDSPIIEANGTLDELTSFIGEAKHYVDEEMKGILEEIQNDIYKIMGEIGSKGKIEGISEERIAWLLKLILRYMEMVNLKSFVLPGGTLESAKLDVCRTIARRALRKVLTVTREFGIGAEAAAYLLALSDLLFLLARVIEIELGKKLLEAARAGQDDEVRILMANGADVNAHDDQGSTPLHLAAWIGHPEIVEVLLKHGADVNARDTDGWTPLHLAADNGHLEIVEVLLKYGADVNAQDAYGLTPLHLAADRGHLEIVEVLLKHGADVNAQDKFGKTAFDISIDNGNEDLAEILQKLN
3 | binds |  |  |  | DARP12 subunit A (cage subunit A fused to the DARPin) (protein) MRITTKVGDKGSTRLFGGEEVWKDSPIIEANGTLDELTSFIGEAKHYVDEEMKGILEEIQNDIYKIMGEIGSKGKIEGISEERIAWLLKLILRYMEMVNLKSFVLPGGTLESAKLDVCRTIARRALRKVLTVTREFGIGAEAAAYLLALSDLLFLLARVIEIEKNQDLGKKLLEAARAGQDDEVRILMANGADVNAHDDQGSTPLHLAAWIGHPEIVEVLLKHGADVNARDTDGWTPLHLAADNGHLEIVEVLLKYGADVNAQDAYGLTPLHLAADRGHLEIVEVLLKHGADVNAQDKFGKTAFDISIDNGNEDLAEILQKLN
4 |  |  |  | binds | DARP10 subunit A (cage subunit fused to the DARPin) (protein) MEEVVLITVPSALVAVKIAHALVEERLAACVNIVPGLTSIYREEGSVVSDHELLLLVKTTTDAFPKLKERVKELHPYEVPEIVALPIAEGNREYLDWLRENMERARQELGKKLLEAARAGQDDEVRILMANGADVNAHDDQGSTPLHLAAWIGHPEIVEVLLKHGADVNARDTDGWTPLHLAADNGHLEIVEVLLKYGADVNAQDAYGLTPLHLAADRGHLEIVEVLLKHGADVNAQDKFGKTAFDISIDNGNEDLAEILQKLN
5 | binds |  |  |  | DARP11 subunit A (cage subunit A fused to the DARPin) (protein) MRITTKVGDKGSTRLFGGEEVWKDSPIIEANGTLDELTSFIGEAKHYVDEEMKGILEEIQNDIYKIMGEIGSKGKIEGISEERIAWLLKLILRYMEMVNLKSFVLPGGTLESAKLDVCRTIARRALRKVLTVTREFGIGAEAAAYLLALSDLLFLLARVIEIEKNDLGKKLLEAARAGQDDEVRILMANGADVNAHDDQGSTPLHLAAWIGHPEIVEVLLKHGADVNARDTDGWTPLHLAADNGHLEIVEVLLKYGADVNAQDAYGLTPLHLAADRGHLEIVEVLLKHGADVNAQDKFGKTAFDISIDNGNEDLAEILQKLN
